# Results: publication PMC5996148
# Protein sequences, listed by entry. Tags and fused reporters are not part of them. Lines headed by an entry give the natural chain unless they say otherwise; changes in a name come on top.
# UniProt P57060: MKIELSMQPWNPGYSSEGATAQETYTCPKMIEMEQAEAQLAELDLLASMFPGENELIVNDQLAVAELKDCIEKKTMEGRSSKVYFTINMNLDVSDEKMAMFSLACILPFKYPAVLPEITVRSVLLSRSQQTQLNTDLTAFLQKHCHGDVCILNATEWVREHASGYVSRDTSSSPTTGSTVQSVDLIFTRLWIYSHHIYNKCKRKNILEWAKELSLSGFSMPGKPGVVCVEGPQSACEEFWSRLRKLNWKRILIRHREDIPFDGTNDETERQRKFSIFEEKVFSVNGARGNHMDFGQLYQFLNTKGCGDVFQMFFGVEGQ
# The list shows a part of the results. For some assays here: The exact form of the protein is not confirmed.
# Columns and labels:
# Assay in all cases: protein microarray (ProtoArray v5.0), streptavidin-Alexa Fluor 647
# Details in all cases: 3'-biotin; 20 mM Tris (pH 7.5), 5 mM MgCl2, 100 mM KCl, 0.1% Tween-20, A/T-rich and random oligonucleotide blockers; temperature not stated; high values mean tight binding
# [1] = biological target: RWDD2B (UniProt P57060)
# [2] = tested on: Rab9 effector protein with Kelch motifs (human)
# [3] = tested on: Rap1 GTPase-GDP dissociation stimulator 1 (human)
# [4] = tested on: Ras-related protein Rab-39B (human)
# [5] = tested on: Ras-related protein Rab-3D (human)
# [6] = tested on: Ras-related protein Rab-9B (human)
# [7] = tested on: Receptor expression-enhancing protein 1 (human)
# [8] = tested on: Receptor expression-enhancing protein 5 (human)
# [9] = tested on: Regenerating islet-derived protein 3 gamma (human)
# [10] = tested on: Regulator of G-protein signaling 3 (human)
# [11] = tested on: Retinoid-binding protein 7 (human)
# [12] = tested on: Retinol-binding protein 1 (human)
# [13] = tested on: Ropporin-1-like protein (human)
# [14] = tested on: Ropporin-1B (human)
# [15] = tested on: S100A14 (human)
# [16] = tested on: S100A8 (human)
# [17] = tested on: SAA1 (human)
# [18] = tested on: SAA4 (human)
# [19] = tested on: SAE1 (human)
# [20] = tested on: SAMD4A (human)
sequence,measurement,setting,value
GGGGACAGGGGTATGGGGAGGGG [G4-3 biotinylated (CtG)],binding signal,[1],4.83 z-score
same,binding signal,[2],-0.327 z-score
same,binding signal,[3],-0.343 z-score
same,binding signal,[4],-0.341 z-score
same,binding signal,[5],-0.331 z-score
same,binding signal,[6],-0.34 z-score
same,binding signal,[7],-0.317 z-score
same,binding signal,[8],-0.339 z-score
same,binding signal,[9],-0.333 z-score
same,binding signal,[10],5.25 z-score
same,binding signal,[11],-0.331 z-score
same,binding signal,[12],-0.313 z-score
same,binding signal,[13],-0.332 z-score
same,binding signal,[14],-0.344 z-score
same,binding signal,[15],-0.344 z-score
same,binding signal,[16],-0.341 z-score
same,binding signal,[17],-0.323 z-score
same,binding signal,[18],-0.316 z-score
same,binding signal,[19],-0.34 z-score
same,binding signal,[20],-0.333 z-score

# Two consecutive entries already listed, for reference:
sequence,measurement,setting,value
GGGGACAGGGGTATGGGGAGGGG [G4-3 biotinylated (CtG)],binding signal,[10],5.25 z-score
same,binding signal,[11],-0.331 z-score
